According to patent US12122830 (ABL BIO, dated 2024):
These are yes or no findings as the source states them, for the method shown. Some entries that bind do so weakly or less than the wild type.

Amino acid sequences for entries named in this document (tags omitted). A change or cut given only in a name is not applied to a line headed by its entry. Residues count along the entry.
UniProt Q9Z139: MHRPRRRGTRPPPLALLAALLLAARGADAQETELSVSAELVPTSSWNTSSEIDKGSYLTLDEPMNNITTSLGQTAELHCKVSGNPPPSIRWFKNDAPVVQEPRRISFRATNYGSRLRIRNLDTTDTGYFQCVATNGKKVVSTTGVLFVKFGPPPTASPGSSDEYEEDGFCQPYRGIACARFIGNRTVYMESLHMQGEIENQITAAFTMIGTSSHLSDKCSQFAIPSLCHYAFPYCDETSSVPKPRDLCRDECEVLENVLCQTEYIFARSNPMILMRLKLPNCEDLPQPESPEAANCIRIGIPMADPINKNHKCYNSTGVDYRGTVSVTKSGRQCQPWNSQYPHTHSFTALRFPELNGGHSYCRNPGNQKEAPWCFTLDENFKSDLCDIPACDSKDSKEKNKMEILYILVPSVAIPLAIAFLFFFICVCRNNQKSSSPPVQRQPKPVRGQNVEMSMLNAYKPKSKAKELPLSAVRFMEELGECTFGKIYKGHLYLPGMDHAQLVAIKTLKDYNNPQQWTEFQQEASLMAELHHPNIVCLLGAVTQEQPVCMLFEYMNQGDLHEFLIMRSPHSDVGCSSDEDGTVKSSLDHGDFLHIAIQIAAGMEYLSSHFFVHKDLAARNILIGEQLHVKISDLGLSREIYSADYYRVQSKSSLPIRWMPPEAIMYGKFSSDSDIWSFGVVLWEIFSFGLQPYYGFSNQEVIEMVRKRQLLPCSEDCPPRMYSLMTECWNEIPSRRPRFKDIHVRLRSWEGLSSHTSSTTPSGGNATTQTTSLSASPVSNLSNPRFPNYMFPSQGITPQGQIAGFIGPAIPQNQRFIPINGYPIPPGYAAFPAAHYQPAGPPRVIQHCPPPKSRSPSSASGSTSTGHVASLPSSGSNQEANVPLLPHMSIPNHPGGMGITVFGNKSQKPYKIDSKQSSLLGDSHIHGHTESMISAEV
mouse ROR1 expressed on the cell surface (CHO-mouse ROR1): residues 30-937 of Q9Z139
recombinant mouse ROR1 protein (Acrobiosystems, RO1-M5221): residues 30-406 of Q9Z139
UniProt Q01973: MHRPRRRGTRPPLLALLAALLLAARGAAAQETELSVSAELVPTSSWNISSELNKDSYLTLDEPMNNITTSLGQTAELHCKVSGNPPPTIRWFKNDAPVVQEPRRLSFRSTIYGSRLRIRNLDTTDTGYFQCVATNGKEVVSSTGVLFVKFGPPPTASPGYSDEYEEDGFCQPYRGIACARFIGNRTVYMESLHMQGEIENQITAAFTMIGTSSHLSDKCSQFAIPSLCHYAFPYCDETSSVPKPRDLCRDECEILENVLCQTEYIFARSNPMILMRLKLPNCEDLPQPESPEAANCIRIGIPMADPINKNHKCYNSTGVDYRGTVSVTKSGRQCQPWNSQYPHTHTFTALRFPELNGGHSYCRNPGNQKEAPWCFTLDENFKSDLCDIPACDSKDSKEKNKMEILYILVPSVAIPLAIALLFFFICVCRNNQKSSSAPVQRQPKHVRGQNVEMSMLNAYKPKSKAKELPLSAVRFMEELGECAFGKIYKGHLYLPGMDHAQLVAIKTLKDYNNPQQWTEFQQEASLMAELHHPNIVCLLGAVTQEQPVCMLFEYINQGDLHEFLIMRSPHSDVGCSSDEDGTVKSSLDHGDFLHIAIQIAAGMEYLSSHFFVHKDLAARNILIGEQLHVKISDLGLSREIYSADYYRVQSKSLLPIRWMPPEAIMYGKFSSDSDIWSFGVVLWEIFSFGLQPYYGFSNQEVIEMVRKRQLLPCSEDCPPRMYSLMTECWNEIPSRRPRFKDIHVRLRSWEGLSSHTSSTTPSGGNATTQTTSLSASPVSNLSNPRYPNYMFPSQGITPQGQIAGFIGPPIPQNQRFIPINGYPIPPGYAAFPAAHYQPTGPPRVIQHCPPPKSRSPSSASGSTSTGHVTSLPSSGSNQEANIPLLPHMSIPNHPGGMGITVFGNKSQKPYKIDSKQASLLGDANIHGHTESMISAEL
recombinant ROR1-His (Sino Biological, 13968-H08H): residues 30-406 of Q01973

Assays:
[1] = target: mouse ROR1 expressed on the cell surface (CHO-mouse ROR1) (mouse) (UniProt Q9Z139); experiment: flow cytometry on CHO-mouse ROR1 cells
[2] = target: recombinant mouse ROR1 protein (Acrobiosystems, RO1-M5221) (mouse) (UniProt Q9Z139); experiment: ELISA, IgG on coated recombinant mouse ROR1
[3] = target: T1, human ROR1 expressed on the cell surface (human, UniProt Q01973 30-937); experiment: flow cytometry on CHO-human ROR1 cells (FIG. 5)
T1 construct: whole, on cells; On JeKo-1 and Mino cells and other cancer cell lines (endogenous) and on transfected CHO and MC38 cells; also called cell surface-expressed ROR1; CHO-human ROR1

[4] = target: mouse ROR1 expressed on the cell surface (CHO-mouse ROR1) (mouse) (UniProt Q9Z139); experiment: flow cytometry on CHO-mouse ROR1 cells (FIG. 5)
[5] = target: T1, human ROR1 expressed on the cell surface; experiment: flow cytometry on JeKo-1 and Mino cells (FIG. 6)
[6] = target: T1, human ROR1 expressed on the cell surface; experiment: flow cytometry on MC38 human ROR1 cells (FIG. 7)
[7] = target: recombinant mouse ROR1 protein (Acrobiosystems, RO1-M5221) (mouse) (UniProt Q9Z139); experiment: ELISA, IgG on coated recombinant mouse ROR1 (FIG. 4)
[8] = target: recombinant ROR1-His (Sino Biological, 13968-H08H) (human) (UniProt Q01973); experiment: ELISA, IgG on coated human ROR1 (ROR1-Fc or ROR1-His)
[9] = target: recombinant ROR1-His (Sino Biological, 13968-H08H) (human) (UniProt Q01973); experiment: ELISA, IgG on coated human ROR1 (ROR1-Fc or ROR1-His) (FIGS. 3a and 3b)
[10] = target: T1, human ROR1 expressed on the cell surface; experiment: flow cytometry on JeKo-1, Mino, CHO-human ROR1 and MC38-human ROR1 cells
[11] = target: recombinant ROR1-His (Sino Biological, 13968-H08H) (human) (UniProt Q01973); experiment: ELISA, human ROR1 protein coated at 1 µg/ml (text: ROR1-Fc or ROR1-His, not said which), IgG titrated, HRP anti-Fab detection

Measured: binding

B1: A2F2 M1 anti-ROR1 IgG antibody (antibody, V domains shown)
VH: EVQLLESGGGLVQPGGSLRLSCAASGFTFSDYYMSWVRQAPGKGLEWVSSISPDASNTYYADSVKGRFTISRDNSKNTLYLQMNSLRAEDTAVYYCAKNLRAFDYWGQGTLVTVSS
VL: QSVLTQPPPASGTPGQRVTISCSGSSSNIGSNTVYWYQQLPGTAPKLLIYANSQRPSGVPDRFSGSKSGTSASLAISGLRSEDEADYYCGSWDYSLSGYVFGGGTKLTVLG
binds: all assays above
